According to paper PMC4493597:
These are yes or no findings as the source states them, for the method shown. In cells and extracts the contact can be indirect. Binding calls can cover weak binding; strength is not graded here. Where a sequence is shown, tags or fusion partners need not be part of it.

Amino acid sequences for entries named in this document (tags omitted). A change or cut given only in a name is not applied to a line headed by its entry.
UniProt Q96RK4: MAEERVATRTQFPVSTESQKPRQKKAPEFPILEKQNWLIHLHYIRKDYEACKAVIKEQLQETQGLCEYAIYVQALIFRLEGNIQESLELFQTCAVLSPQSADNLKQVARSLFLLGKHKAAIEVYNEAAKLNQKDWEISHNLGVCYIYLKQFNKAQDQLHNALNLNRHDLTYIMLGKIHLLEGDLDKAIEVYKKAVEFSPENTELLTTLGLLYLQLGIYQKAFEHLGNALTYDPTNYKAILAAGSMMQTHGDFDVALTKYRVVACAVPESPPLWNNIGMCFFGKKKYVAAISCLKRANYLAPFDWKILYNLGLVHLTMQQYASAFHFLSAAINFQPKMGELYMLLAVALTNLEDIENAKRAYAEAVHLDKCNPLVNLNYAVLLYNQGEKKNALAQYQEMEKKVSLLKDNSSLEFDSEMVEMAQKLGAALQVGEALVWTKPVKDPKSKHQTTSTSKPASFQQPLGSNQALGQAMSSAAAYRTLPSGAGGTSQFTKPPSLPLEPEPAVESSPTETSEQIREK

Target: Flag-tagged BBS4 A364E mutant (human) (UniProt Q96RK4)
Experiment: co-IP; HEK293T co-transfected with Myc-BBS5 and Flag-BBS4; lysate in IP buffer (20 mM Hepes-KOH pH 7.2, 150 mM NaCl, 0.5% NP-40) precipitated with anti-Flag (M2), blot with anti-Myc

B1: Myc-tagged BBS5 (protein, UniProt Q8N3I7 1-341)
chain: MSVLDALWEDRDVRFDLSAQQMKTRPGEVLIDCLDSIEDTKGNNGDRGRLLVTNLRILWHSLALSRVNVSVGYNCILNITTRTANSKLRGQTEALYILTKCNSTRFEFIFTNLVPGSPRLFTSVMAVHRAYETSKMYRDFKLRSALIQNKQLRLLPQEHVYDKINGVWNLSSDQGNLGTFFITNVRIVWHANMNDSFNVSIPYLQIRSIKIRDSKFGLALVIESSQQSGGYVLGFKIDPVEKLQESVKEINSLHKVYSASPIFGVDYEMEEKPQPLEALTVEQIQDDVEIDSDGHTDAFVAYFADGNKQQDREPVFSEELGLAIEKLKDGFTLQGLWEVMS
Q: With B1 as the binder, how does the binding read?
A: The binding was “binds”.
